pKi: −log10 of the molar value.
Biological target: T1, 5-hydroxytryptamine receptor 1A (Rattus norvegicus, UniProt P19327)
T1 sequence (P19327 whole entry): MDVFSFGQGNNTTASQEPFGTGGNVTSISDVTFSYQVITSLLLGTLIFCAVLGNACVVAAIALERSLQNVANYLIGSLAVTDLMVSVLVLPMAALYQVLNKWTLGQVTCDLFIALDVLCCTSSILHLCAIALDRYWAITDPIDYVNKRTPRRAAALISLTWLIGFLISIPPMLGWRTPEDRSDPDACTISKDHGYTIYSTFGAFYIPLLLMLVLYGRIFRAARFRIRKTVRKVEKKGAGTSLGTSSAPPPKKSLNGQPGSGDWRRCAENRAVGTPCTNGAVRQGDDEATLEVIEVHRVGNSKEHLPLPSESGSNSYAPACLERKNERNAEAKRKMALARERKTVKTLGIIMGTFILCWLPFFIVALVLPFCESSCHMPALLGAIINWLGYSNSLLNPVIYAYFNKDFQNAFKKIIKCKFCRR
Assay: Binding affinity towards 5-hydroxytryptamine 1A receptor by the displacement of [125I]trans-8-OH-PIPAT in membrane homogenates of hippocampal tissue of rat brain
Format: tissue-based, Hippocampus

CC(C)NCC(O)COc1cccc2ccccc12 (racemic) [PROPRANOLOL]
pKi: 6.95

Reference: ChEMBL document CHEMBL1126858, “Synthesis of (R,S)-trans-8-hydroxy-2-[N-n-propyl-N-(3'-iodo-2'-propenyl)amino]tetral in (trans-8-OH-PIPAT): a new 5-HT1A receptor ligand” (J Med Chem, 1993)
